This note sets out measurements from PMC12652440.

Construct, isoform or probe ends are uncertain for at least one entry. Protein sequences can lack the tags named with them.

This series has as its target T1, AtPDF2-HD(L43R)-his L104R (Arabidopsis thaliana) (UniProt Q93V99).
T1 sequence (looked up, limits assumed): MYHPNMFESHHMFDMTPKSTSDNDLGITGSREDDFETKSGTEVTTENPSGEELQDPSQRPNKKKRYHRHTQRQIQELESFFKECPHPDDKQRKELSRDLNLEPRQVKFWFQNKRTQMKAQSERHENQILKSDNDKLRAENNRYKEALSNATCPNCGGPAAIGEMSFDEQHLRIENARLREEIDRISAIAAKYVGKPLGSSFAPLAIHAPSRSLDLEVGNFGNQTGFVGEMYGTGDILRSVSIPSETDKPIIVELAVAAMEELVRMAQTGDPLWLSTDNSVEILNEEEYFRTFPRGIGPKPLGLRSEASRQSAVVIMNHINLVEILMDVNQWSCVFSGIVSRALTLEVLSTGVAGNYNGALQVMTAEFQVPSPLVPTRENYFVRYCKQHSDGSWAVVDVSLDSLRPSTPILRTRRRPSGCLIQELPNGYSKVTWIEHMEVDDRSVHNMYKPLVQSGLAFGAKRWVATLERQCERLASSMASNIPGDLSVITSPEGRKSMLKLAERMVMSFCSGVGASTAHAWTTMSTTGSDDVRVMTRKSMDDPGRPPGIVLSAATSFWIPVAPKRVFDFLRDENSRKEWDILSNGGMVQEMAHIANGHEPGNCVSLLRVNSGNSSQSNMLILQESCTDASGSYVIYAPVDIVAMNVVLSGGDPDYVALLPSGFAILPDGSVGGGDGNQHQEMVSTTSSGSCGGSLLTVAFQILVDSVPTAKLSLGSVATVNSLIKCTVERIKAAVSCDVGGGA
As to the kind of experiment: EMSA. To be noted: binding significantly enhanced relative to wild-type PDF2; Chemiluminescent EMSA kit (Beyotime); pH and temperature not stated; competitor = unlabeled S1; recombinant protein; protein details: His (pET-30a); label: biotin.

On to “TAATTAATTAATTAATTAATTAATTAATTAAT (double strand) [biotin-L1 box core tandem repeat probe]”, for which the binding result is on record as “binds”.
